Some of the results follow. Shown are side measurements of this screen, not its main read-out; they come without a call. The list favours compounds with an active or inconclusive main result. The note in brackets gives the kind of curve behind each potency; many fits are weak.
Experiment: qHTS Assay for Lipid Storage Modulators in Drosophila S3 Cells;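 on cell number change: cells counted by Cell Tracker Red CMTPX staining in the red channel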
Details: BODIPY lipid droplet fluorescence, 18-24 h; for cell number change: measured here: cell count max response, cells fed with added oleic acid
In short: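 Drosophila S3 cells loaded with oleic acid (400 uM, as added) and compounds at several concentrations; lipid droplets imaged by 488-nm laser-scanning cytometry, 500–530 nm intensity and object ratio to cell channel. Percent activity normalized to 20 uM Triacsin C.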

[1] = measured here: cell number channel AC50, cells fed with added oleic acid
[2] = measured here: lipid fluorescence (Fed channel) AC50, cells fed with added oleic acid

Compound | cell number change | AC50 [1] | AC50 [2]
CCOc1ccc(N2C=Nc3ccc(OCC)cc3C2)cc1 | 18.7% | – | –
CCCN1CCC(=NNc2ccc(S(=O)(=O)N(CC)CC)cc2[N+](=O)[O-])CC1 | 86% | 18.4 µM [rising, partial curve, poor fit] | 25.9 µM [rising, partial curve]
CCCCn1c(N)c(N(CC)C(=O)c2cccc(C)c2)c(=O)[nH]c1=O | 5.88% | – | 0.00461 µM [rising, full curve, poor fit]
COc1ccc(/C=C2\CCCC3C2=NN(C(=O)CSc2ncn[nH]2)C3c2ccc(OC)cc2)cc1 (stereo unspecified) | – | – | 29.1 µM [falling, single point]
COc1ccc(S(=O)(=O)NNC(=O)c2ccc([N+](=O)[O-])cc2)cc1 | -16.4% | – | –
Cc1ccc(S(=O)(=O)N2CCCCC2)cc1NC(=O)c1nn(C)c(=O)c2ccccc12 | -1.49% | – | 0.206 µM [rising, full curve, poor fit]
COc1cc2c(cc1OC)-c1nc3ccccc3c(=O)n1C(C)(C)C2 | – | 1.46 µM [rising, full curve] | 1.3 µM [rising, partial curve]
Cc1cc(NS(=O)(=O)Cc2ccccc2)no1 | -26.4% | – | –
Cc1ccc(Nc2nnc(SCC(=O)NC3CC3)s2)cc1 | 29.9% | – | 29.1 µM [rising, single point]
CC1=NN(c2ccccc2)C(=O)/C1=C/c1cn(C)c2ccccc12 | -62.5% | 6.51 µM [falling, full curve] | 6.51 µM [falling, full curve]
O=C(N/N=C/c1cccc2ccccc12)c1cc2ccccc2o1 | -31.5% | 29.1 µM [falling, single point] | 29.1 µM [rising, single point]
COc1ccc(Cc2nc3ccc(C(=O)NCCCSC)cc3o2)cc1OC | -1.07% | – | 0.58 µM [falling, full curve, poor fit]
Cc1cc2ccccc2c(=O)n1CC(=O)NCCC1=CCCCC1 | 1.19% | – | –
CC1=Nn2c(nnc2-c2cccs2)SC1 | – | – | 6.51 µM [falling, single point]
O=C1NC2(CCCCC2)C(=O)N1/N=C/c1ccc(O)cc1O | – | – | 6.51 µM [falling, single point]
CCOc1ccc(C(=O)Cn2cnnc2C#N)cc1 | 11.8% | – | –
COc1ccccc1-c1c(C)nn2c(N3CCC(C(N)=O)CC3)cc(C)nc12 | – | – | 4.61 µM [rising, single point]
O=C(Nc1cccc(Cl)c1)c1ccc2c(c1)SC1=NS(=O)(=O)CCN12 | 82.5% | 29.1 µM [rising, single point] | 29.1 µM [rising, single point]
Cc1nc(SCC(=O)NCc2ccco2)[nH]c(=O)c1C | -0.516% | – | 0.231 µM [falling, full curve, poor fit]
c1ccc(CSc2nnc(SCc3ccccn3)s2)nc1 | 6.87% | 0.00651 µM [falling, full curve, poor fit] | 20.6 µM [falling, single point]
O=C(COc1ccc(N2C(=O)c3ccccc3C2=O)cc1)c1ccccc1 | 11.3% | 6.51 µM [rising, partial curve] | –

Compound | cell number change | AC50 [1] | AC50 [2]
COCCn1nnnc1CN1C2CCCC1CC(NC(C)=O)C2 (stereo unspecified) | -10% | – | 23.1 µM [falling, single point]
Cc1cc(C)c(C#N)c(SCc2cc3c(cc2Cl)OCO3)n1 | -6.69% | 6.51 µM [rising, single point] | –
O=C(Nc1ccccc1F)c1cc(S(=O)(=O)N2CCOCC2)cs1 | 19% | 0.0517 µM [rising, full curve, poor fit] | –
CCCc1nnc2c(N(C)S(=O)(=O)c3ccc(C)cc3)nc3ccccc3n12 | – | – | 2.31 µM [rising, partial curve]
COC(=O)c1cccc(NC(=O)C2COc3ccccc3O2)c1 (stereo unspecified) | 4.22% | – | 0.651 µM [falling, single point]
CCCSc1nnc(NC(=O)Cc2ccc(OC)c(OC)c2)s1 | 10.1% | – | –
CC(=O)c1cn(CCOc2ccccc2C)c2ccccc12 | -21.1% | – | 29.1 µM [falling, single point]
COc1nccnc1NS(=O)(=O)c1ccc(NC(=O)c2ccccc2Br)cc1 | -27.6% | – | 5.62 µM [rising, single point]
CC(C)c1nc(SCC(=O)NC(=O)NC(C)(C)C)n[nH]1 | -13.7% | – | –
Cc1cc(C)cc(NC(=S)Nc2ccccn2)c1 | 9.5% | – | 32.6 µM [rising, single point]
COc1cc(OC)cc(-n2nnnc2SCC(=O)NC2CCCC2)c1 | 33.9% | 6.51 µM [rising, partial curve] | 6.51 µM [rising, single point]
CCOC(=O)c1c(C)[nH]c(N=Nc2ccc(OC)cc2)c1C | -45.8% | 23.1 µM [falling, single point] | –
CCOC(=O)c1c(C)[nH]c(C(=O)CN2C(=O)NC(C)(c3ccc4ccccc4c3)C2=O)c1C (stereo unspecified) | -20.8% | – | 0.731 µM [falling, full curve, poor fit]
Cn1cc(S(=O)(=O)N2CCCC2)cc1C(=O)NCc1ccccc1 | 15.3% | – | –
Nc1nc(-c2nonc2N)no1 | -11.5% | – | 2.06 µM [falling, full curve]
O=C(NC1CCN(C(=O)Nc2ccccc2Cl)CC1)c1ccco1 | -6.41% | – | 0.58 µM [falling, single point]
CC1(C)CC(=O)C2=C(C1)Nc1ccccc1[S@]2=O | 17.5% | 0.259 µM [rising, partial curve] | 1.3 µM [rising, partial curve]
CCOC(=O)C1(Cc2ccccc2)CCN(Cc2cc(OC)c3c(c2)OCO3)CC1 | -27.8% | 0.092 µM [falling, full curve, poor fit] | 0.58 µM [falling, single point]
CCn1nc(C)c(Br)c1-c1nc(-c2ccc(C)cc2)no1 | 36.6% | – | 29.1 µM [rising, single point]
Cc1ccc2c(C(=O)CCl)c(C)[nH]c2c1 | – | – | 0.517 µM [falling, single point]

Among those listed so far, 3 have a furan ring, fused or not.
Compound | cell number change | AC50 [1] | AC50 [2]
O=C(N/N=C/c1cccc2ccccc12)c1cc2ccccc2o1 | -31.5% | 29.1 µM [falling, single point] | 29.1 µM [rising, single point]
Cc1nc(SCC(=O)NCc2ccco2)[nH]c(=O)c1C | -0.516% | – | 0.231 µM [falling, full curve, poor fit]
O=C(NC1CCN(C(=O)Nc2ccccc2Cl)CC1)c1ccco1 | -6.41% | – | 0.58 µM [falling, single point]

The list goes on:

Compound | cell number change | AC50 [1] | AC50 [2]
Nc1nn2cc(-c3ccc(Br)cc3)nc2c2ccccc12 | -36.6% | 32.6 µM [falling, single point] | –
CN(C)C(=O)C1OC(C)(C)OC1C(=O)N(C)C (stereo unspecified) | -71% | 29.1 µM [falling, single point] | 29.1 µM [falling, single point]
Cc1cc2c(=O)n(C)c(SCC(=O)Nc3ccccc3C)nc2s1 | -96.7% | 16.4 µM [falling, partial curve, poor fit] | 29.1 µM [falling, partial curve, poor fit]
CCC1=[N+](C)CCn2c(C)ccc21 | -30.2% | 0.259 µM [falling, full curve] | 10.3 µM [falling, partial curve]
CC(=O)O[C@H]1C[C@@]2(C)[C@@H](C[C@@H](O)[C@H]3[C@@]4(C)CC[C@@H](O)[C@@H](C)[C@@H]4CC[C@@]32C)/C1=C(\CCC=C(C)C)C(=O)O | 13.8% | – | 3.66 µM [rising, full curve, poor fit]
CC1CC(=O)c2c(cc3c(-c4c(O)cc(O)c5c(O)c6c(cc45)OC(C)CC6=O)c(O)cc(O)c3c2O)O1 (stereo unspecified) | -69.5% | 18.4 µM [falling, single point] | 18.4 µM [falling, single point]
O=C(COc1cccc(C(F)(F)F)c1)NCC(c1cccs1)N1CCOCC1 (stereo unspecified) | -5.32% | – | 2.59 µM [rising, partial curve, poor fit]
CN1CCN(c2nc(-c3ccccc3)nc(-c3ccc(F)cc3)c2C#N)CC1 | -5.08% | 6.51 µM [rising, single point] | –
O=C(Cc1cccs1)N1CCN(c2nc(-c3ccc(Cl)cc3)cs2)CC1 | -12.1% | – | 0.651 µM [falling, full curve]
C=CCNC(=O)c1c(N)n(-c2ccc3c(c2)OCO3)c2nc3ccccc3nc12 | -0.406% | – | –
CCN(CC)CCNC(=O)Cn1cnc2sc(C)c(S(=O)(=O)N3CCC(C)CC3)c2c1=O | -7.5% | – | –
CCCCCCn1c(N2CCN(c3ccccc3)CC2)nc2c1c(=O)n(C)c(=O)n2C | – | – | 1.64 µM [rising, partial curve]
Cc1ccc(CN2CC(C(=O)NCCC3=CCCCC3)CC2=O)cc1 (stereo unspecified) | -37.6% | 16.4 µM [falling, single point] | 29.1 µM [falling, single point]
COc1ccccc1NC(=O)NCC1CC1(Cl)Cl (stereo unspecified) | 9.46% | – | 29.1 µM [falling, single point]
O=C(OCC#CCSc1nnc(-c2ccc([N+](=O)[O-])cc2)o1)c1cccs1 | 22.3% | – | 18.4 µM [falling, partial curve]
c1ccc(-c2csc(-n3cccn3)n2)cc1 | 30.6% | 2.06 µM [rising, partial curve] | –
O=C(OCC(=O)N1CCCc2ccccc21)c1ccccc1NCCO | -15.4% | – | –
Cc1sc(NC(=O)c2ccco2)c(CN2CCN(c3ccccc3)CC2)c1C | – | 0.651 µM [rising, single point] | –
CC1CCN(C(=O)c2ccc(S(=O)(=O)N3CCCC3)cc2)CC1 | -11.3% | – | 29.1 µM [falling, single point]
